The source of these data is paper PMC10799895.

Results are given in words; binding and its absence hold for the method and conditions named. For part of these data: Binding seen in cells or lysates may run through a third protein. Some results given as binding are weak or reduced against the parent protein; the word gives no strength. For part of these data: Tags and fused reporters may be left off the sequences shown.

One assay has as its target ATG14-HA (UniProt Q6ZNE5). As to the kind of experiment: co-IP.
The target in another assay is M-Flag (SARS-CoV-2) (UniProt P0DTC5). The experiment in a line: co-IP.
The target of assay [1] is strep(2x)-flag-hATG14 (human) (UniProt Q6ZNE5).

B1: STX18-HA (protein, UniProt Q9P2W9 1-335)
chain: MAVDITLLFRASVKTVKTRNKALGVAVGGGVDGSRDELFRRSPRPKGDFSSRAREVISHIGKLRDFLLEHRKDYINAYSHTMSEYGRMTDTERDQIDQDAQIFMRTCSEAIQQLRTEAHKEIHSQQVKEHRTAVLDFIEDYLKRVCKLYSEQRAIRVKRVVDKKRLSKLEPEPNTKTRESTSSEKVSQSPSKDSEENPATEERPEKILAETQPELGTWGDGKGEDELSPEEIQMFEQENQRLIGEMNSLFDEVRQIEGRVVEISRLQEIFTEKVLQQEAEIDSIHQLVVGATENIKEGNEDIREAIKNNAGFRVWILFFLVMCSFSLLFLDWYDS
With B1, the binding result with ATG14-HA is on record as “binds”.

B2: endogenous STX18 (protein, UniProt Q9P2W9 1-335)
chain: MAVDITLLFRASVKTVKTRNKALGVAVGGGVDGSRDELFRRSPRPKGDFSSRAREVISHIGKLRDFLLEHRKDYINAYSHTMSEYGRMTDTERDQIDQDAQIFMRTCSEAIQQLRTEAHKEIHSQQVKEHRTAVLDFIEDYLKRVCKLYSEQRAIRVKRVVDKKRLSKLEPEPNTKTRESTSSEKVSQSPSKDSEENPATEERPEKILAETQPELGTWGDGKGEDELSPEEIQMFEQENQRLIGEMNSLFDEVRQIEGRVVEISRLQEIFTEKVLQQEAEIDSIHQLVVGATENIKEGNEDIREAIKNNAGFRVWILFFLVMCSFSLLFLDWYDS
Turning to B2, the binding entry in the assay with M-Flag (SARS-CoV-2) is recorded as “binds”.

B3: STX18-Flag (protein, UniProt Q9P2W9 1-335)
chain: MAVDITLLFRASVKTVKTRNKALGVAVGGGVDGSRDELFRRSPRPKGDFSSRAREVISHIGKLRDFLLEHRKDYINAYSHTMSEYGRMTDTERDQIDQDAQIFMRTCSEAIQQLRTEAHKEIHSQQVKEHRTAVLDFIEDYLKRVCKLYSEQRAIRVKRVVDKKRLSKLEPEPNTKTRESTSSEKVSQSPSKDSEENPATEERPEKILAETQPELGTWGDGKGEDELSPEEIQMFEQENQRLIGEMNSLFDEVRQIEGRVVEISRLQEIFTEKVLQQEAEIDSIHQLVVGATENIKEGNEDIREAIKNNAGFRVWILFFLVMCSFSLLFLDWYDS
For the molecule B3, the binding entry in assay [1] is listed as “binds”.
